Record: PubChem BioAssay AID743121 (NCATS, 2013)
This is one part, drawn at random, of about 26,000 reagents tested. 167 of them (0.63%) were called active. 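Calls are per gene from RSA p-values that are not deposited; an individual active-marked siRNA can sensitise only weakly.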 The numbers tell different reagents against one gene apart. No sequences are given here.

Test: 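Partners whose loss is lethal together with topoisomerase I blockade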 (primary screen)
Cell system: MDA-MB-231 cells, a human breast cancer line
Knock-down reagent: single siRNA against human genes, 20 nM siRNA (0.8 pmol per well)
Duration: 120 h (drug added 48 h after transfection, read 72 h later)
Conditions: camptothecin 20 nM (about EC30) for 72 h; vehicle 0.1% DMSO in parallel plates
Read-out: 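Cell viability by ATP luminescence (CellTiter-Glo) as % of non-targeting siRNA wells, and the log2 ratio of viability without drug over viability with camptothecin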
Direction: log2 vehicle/camptothecin viability: higher = stronger sensitisation to camptothecin; viability with camptothecin and viability without drug: higher = more viable cells
Hit rule: 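Each gene scored by redundant siRNA activity (RSA) over its individual siRNA ratios; a gene is called active at p < 0.001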

gene	reagent	log2 vehicle/camptothecin viability	viability with camptothecin (% of control)	viability without drug (% of control)	activity call
CLK3 (CDC like kinase 3)	1	0.0241	97.9	99.6	inactive
CLK3 (CDC like kinase 3)	2	-0.102	42.6	39.7	inactive
CLK3 (CDC like kinase 3)	3	1.76	19.4	65.4	inactive
CLK3 (CDC like kinase 3)	4	0.0555	57.9	60.2	inactive
STS (steroid sulfatase)	1	-0.146	81	73.2	inactive
STS (steroid sulfatase)	2	0.165	66.6	74.6	inactive
STS (steroid sulfatase)	3	-0.0968	52.9	49.4	inactive
STS (steroid sulfatase)	4	0.142	89.6	98.8	inactive
STAT5A (signal transducer and activator of transcription 5A)	1	-0.106	95.1	88.4	inactive
STAT5A (signal transducer and activator of transcription 5A)	2	-0.134	95.7	87.2	inactive
STAT5A (signal transducer and activator of transcription 5A)	3	0.000933	87.4	87.5	inactive
STAT5A (signal transducer and activator of transcription 5A)	4	-0.344	82.9	65.3	inactive
PRAM1 (PML-RARA regulated adaptor molecule 1)	1	0.232	84.7	99.5	inactive
PRAM1 (PML-RARA regulated adaptor molecule 1)	2	-0.193	74.5	65.2	inactive
PRAM1 (PML-RARA regulated adaptor molecule 1)	3	-0.129	66.8	61.1	inactive
PRAM1 (PML-RARA regulated adaptor molecule 1)	4	0.09	76.6	81.5	inactive

Entries above whose gene name starts with P or p (4):
gene	reagent	log2 vehicle/camptothecin viability	viability with camptothecin (% of control)	viability without drug (% of control)	activity call
PRAM1 (PML-RARA regulated adaptor molecule 1)	1	0.232	84.7	99.5	inactive
PRAM1 (PML-RARA regulated adaptor molecule 1)	2	-0.193	74.5	65.2	inactive
PRAM1 (PML-RARA regulated adaptor molecule 1)	3	-0.129	66.8	61.1	inactive
PRAM1 (PML-RARA regulated adaptor molecule 1)	4	0.09	76.6	81.5	inactive

The list goes on.
gene	reagent	log2 vehicle/camptothecin viability	viability with camptothecin (% of control)	viability without drug (% of control)	activity call
SLC4A7	1	-0.305	107	86.5	inactive
SLC4A7	2	-0.144	49.5	44.8	inactive
SLC4A7	3	-0.111	44	40.8	inactive
SLC4A7	4	-0.381	112	86.3	inactive
RAB34 (RAB34, member RAS oncogene family)	1	-0.263	62.7	52.3	inactive
RAB34 (RAB34, member RAS oncogene family)	2	-0.135	49.8	45.4	inactive
RAB34 (RAB34, member RAS oncogene family)	3	-0.136	104	94.7	inactive
RAB34 (RAB34, member RAS oncogene family)	4	0.465	53	73.2	inactive
MAK (male germ cell associated kinase)	1	-0.22	99.6	85.5	inactive
MAK (male germ cell associated kinase)	2	0.0119	34.9	35.2	inactive
MAK (male germ cell associated kinase)	3	0.699	58.9	95.6	inactive
MAK (male germ cell associated kinase)	4	-0.556	110	74.6	inactive
PSMB9 (proteasome 20S subunit beta 9)	1	0.0597	78.9	82.3	inactive
PSMB9 (proteasome 20S subunit beta 9)	2	-0.0106	70.7	70.2	inactive
PSMB9 (proteasome 20S subunit beta 9)	3	-0.182	94.7	83.5	inactive
PSMB9 (proteasome 20S subunit beta 9)	4	0.0214	79.3	80.5	inactive
PDIA2 (protein disulfide isomerase family A member 2)	1	-0.452	81.4	59.5	inactive
PDIA2 (protein disulfide isomerase family A member 2)	2	-0.213	69.9	60.3	inactive
PDIA2 (protein disulfide isomerase family A member 2)	3	-0.291	46.3	37.9	inactive
PDIA2 (protein disulfide isomerase family A member 2)	4	-0.514	138	96.5	inactive
NRBF2 (nuclear receptor binding factor 2)	1	0.152	87.2	96.9	inactive
NRBF2 (nuclear receptor binding factor 2)	2	0.0274	98.6	100	inactive
NRBF2 (nuclear receptor binding factor 2)	3	-0.305	74.5	60.3	inactive
IL36G (interleukin 36 gamma)	1	-0.356	105	81.9	inactive
IL36G (interleukin 36 gamma)	2	0.66	45.3	71.6	inactive
IL36G (interleukin 36 gamma)	3	-0.23	75.1	64	inactive
IL36G (interleukin 36 gamma)	4	-0.154	80.1	72	inactive
IGF2R (insulin like growth factor 2 receptor)	1	-0.0691	76.3	72.8	inactive
IGF2R (insulin like growth factor 2 receptor)	2	-0.249	40.3	33.9	inactive
IGF2R (insulin like growth factor 2 receptor)	3	-0.224	25.1	21.5	inactive
IGF2R (insulin like growth factor 2 receptor)	4	-0.213	64.2	55.4	inactive
